Results: doi:10.1101/2020.06.29.177584

Sequences of proteins named here, by UniProt entry; tags and fusion partners are left off. A change or cut given only in a name is not applied to a line headed by its entry. Residues count along the entry.
UniProt Q3URK3, residues 734-2039: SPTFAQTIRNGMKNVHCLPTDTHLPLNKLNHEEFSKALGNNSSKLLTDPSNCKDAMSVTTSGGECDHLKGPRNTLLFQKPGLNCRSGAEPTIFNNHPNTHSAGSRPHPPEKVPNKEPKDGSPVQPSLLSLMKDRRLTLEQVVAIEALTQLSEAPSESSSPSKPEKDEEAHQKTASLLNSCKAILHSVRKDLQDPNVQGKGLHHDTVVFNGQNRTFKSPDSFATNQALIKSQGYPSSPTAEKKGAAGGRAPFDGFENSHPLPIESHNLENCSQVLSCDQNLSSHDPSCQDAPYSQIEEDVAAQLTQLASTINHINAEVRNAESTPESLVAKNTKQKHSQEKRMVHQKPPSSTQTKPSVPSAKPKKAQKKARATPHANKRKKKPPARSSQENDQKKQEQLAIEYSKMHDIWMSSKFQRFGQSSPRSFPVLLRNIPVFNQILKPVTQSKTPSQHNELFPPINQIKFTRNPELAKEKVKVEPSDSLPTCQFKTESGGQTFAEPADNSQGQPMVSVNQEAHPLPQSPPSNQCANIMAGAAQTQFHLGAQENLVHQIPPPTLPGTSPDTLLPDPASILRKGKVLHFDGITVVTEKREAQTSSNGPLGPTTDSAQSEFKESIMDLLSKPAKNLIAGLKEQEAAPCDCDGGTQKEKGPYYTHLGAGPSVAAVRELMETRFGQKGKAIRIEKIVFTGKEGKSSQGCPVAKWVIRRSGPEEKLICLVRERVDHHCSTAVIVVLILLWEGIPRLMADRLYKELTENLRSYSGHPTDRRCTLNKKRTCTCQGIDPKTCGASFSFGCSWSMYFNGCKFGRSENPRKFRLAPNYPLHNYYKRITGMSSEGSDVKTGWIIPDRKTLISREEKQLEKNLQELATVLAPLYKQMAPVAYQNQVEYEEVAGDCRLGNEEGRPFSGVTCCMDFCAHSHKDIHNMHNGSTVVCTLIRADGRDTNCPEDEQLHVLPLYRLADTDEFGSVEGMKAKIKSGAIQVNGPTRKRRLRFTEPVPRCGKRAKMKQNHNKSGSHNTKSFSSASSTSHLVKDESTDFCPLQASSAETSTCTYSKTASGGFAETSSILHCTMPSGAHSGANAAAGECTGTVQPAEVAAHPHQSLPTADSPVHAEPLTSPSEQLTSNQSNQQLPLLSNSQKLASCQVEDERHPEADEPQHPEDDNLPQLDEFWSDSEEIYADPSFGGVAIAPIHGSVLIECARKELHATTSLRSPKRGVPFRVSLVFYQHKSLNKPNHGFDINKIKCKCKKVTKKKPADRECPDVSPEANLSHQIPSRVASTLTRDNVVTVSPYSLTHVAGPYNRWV

Assays:
[1] = biological target: (Flag)3-TET1 734-2039 (mouse) (UniProt Q3URK3); experiment: co-IP
[2] = biological target: MBP-TET1 1-120, valine to alanine mutant within residues 109-120 (mouse) (UniProt Q3URK3); experiment: pull-down
[3] = biological target: MBP-TET1 1-120, glutamine to alanine mutant within residues 109-120 (mouse) (UniProt Q3URK3); experiment: pull-down
[4] = biological target: MBP-TET1 1-120, serine to alanine mutant within residues 109-120 (mouse) (UniProt Q3URK3); experiment: pull-down
[5] = biological target: MBP-TET1 1-120, proline to alanine mutant within residues 109-120 (mouse) (UniProt Q3URK3); experiment: pull-down
[6] = biological target: MBP-TET1 1-120, arginine to alanine mutant within residues 109-120 (mouse) (UniProt Q3URK3); experiment: pull-down
[7] = biological target: (Flag)3-TET1 (734-1169), isoleucine to alanine mutant within residues 1156-1169 (mouse) (UniProt Q3URK3); experiment: co-IP
[8] = biological target: (Flag)3-TET1(1-1547) Δ1+2, serine to alanine mutant within residues 1522-1547 (mouse) (UniProt Q3URK3); experiment: co-IP
[9] = biological target: (Flag)3-TET1 (734-1169), proline to alanine mutant within residues 1156-1169 (mouse) (UniProt Q3URK3); experiment: co-IP
[10] = biological target: (Flag)3-TET1 (734-1169), leucine to alanine mutant within residues 1156-1169 (mouse) (UniProt Q3URK3); experiment: co-IP

Measured: binding

(HA)3-NANOG ΔWR (from UniProt Q80Z64)
binds: [1]

B1: His-NANOG (protein, UniProt Q80Z64 1-305)
chain: MSVGLPGPHSLPSSEEASNSGNASSMPAVFHPENYSCLQGSATEMLCTEAASPRPSSEDLPLQGSPDSSTSPKQKLSSPEADKGPEEEENKVLARKQKMRTVFSQAQLCALKDRFQKQKYLSLQQMQELSSILNLSYKQVKTWFQNQRMKCKRWQKNQWLKTSNGLIQKGSAPVEYPSIHCSYPQGYLVNASGSLSMWGSQTWTNPTWSSQTWTNPTWNNQTWTNPTWSSQAWTAQSWNGQPWNAAPLHNFGEDFLQPYVQLQQNFSASDLEVNLEATRESHAHFSTPQALELFLNYSVTPPGEI
binds: [2] | [3] | [4] | [5] | [6]

B2: (HA)3-NANOG (protein, UniProt Q80Z64 1-305)
chain: MSVGLPGPHSLPSSEEASNSGNASSMPAVFHPENYSCLQGSATEMLCTEAASPRPSSEDLPLQGSPDSSTSPKQKLSSPEADKGPEEEENKVLARKQKMRTVFSQAQLCALKDRFQKQKYLSLQQMQELSSILNLSYKQVKTWFQNQRMKCKRWQKNQWLKTSNGLIQKGSAPVEYPSIHCSYPQGYLVNASGSLSMWGSQTWTNPTWSSQTWTNPTWNNQTWTNPTWSSQAWTAQSWNGQPWNAAPLHNFGEDFLQPYVQLQQNFSASDLEVNLEATRESHAHFSTPQALELFLNYSVTPPGEI
binds: [7] | [8] | [9] | [10]

Results are given in words; binding and its absence hold for the method and conditions named. In cells and extracts the contact can be indirect. A result given as binding can be weak or reduced; the word gives no strength. For some of these results: Sequences can lack the tags named with a protein.
